Measured values as given in article PMC11055677.
No constants are given. Whether binding was seen depends on the method and setting. For part of these data: In cells and extracts the contact can be indirect. Some binding calls cover weakened binding; strength is not graded here. Sequences can lack the tags named with a protein.

T1: FLAG-HA-SPATA5L1 wild type, transiently expressed in 293T (human) (UniProt Q9BVQ7)
T1 sequence: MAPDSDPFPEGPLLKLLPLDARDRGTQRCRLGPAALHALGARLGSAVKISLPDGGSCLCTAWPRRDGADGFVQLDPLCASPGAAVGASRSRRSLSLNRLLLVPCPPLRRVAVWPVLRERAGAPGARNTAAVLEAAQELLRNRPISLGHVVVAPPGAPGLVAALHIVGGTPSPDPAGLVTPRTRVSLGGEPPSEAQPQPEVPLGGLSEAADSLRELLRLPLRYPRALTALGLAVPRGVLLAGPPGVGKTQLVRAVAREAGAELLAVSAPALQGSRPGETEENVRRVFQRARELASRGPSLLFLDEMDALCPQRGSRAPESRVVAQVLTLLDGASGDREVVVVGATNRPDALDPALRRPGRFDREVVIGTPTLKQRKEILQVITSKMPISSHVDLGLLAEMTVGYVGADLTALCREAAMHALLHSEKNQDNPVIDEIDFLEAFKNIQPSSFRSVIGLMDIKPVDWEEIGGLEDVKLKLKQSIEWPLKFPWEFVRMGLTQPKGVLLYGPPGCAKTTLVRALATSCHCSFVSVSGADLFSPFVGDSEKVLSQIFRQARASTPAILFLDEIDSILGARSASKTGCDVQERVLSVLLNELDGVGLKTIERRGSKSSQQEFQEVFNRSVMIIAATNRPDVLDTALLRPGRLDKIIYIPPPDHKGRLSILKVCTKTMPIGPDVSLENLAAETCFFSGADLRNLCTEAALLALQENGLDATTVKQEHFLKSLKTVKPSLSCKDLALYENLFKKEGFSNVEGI

T2: CINP, untagged, purified alone (human), Q9BW66
T2 chain: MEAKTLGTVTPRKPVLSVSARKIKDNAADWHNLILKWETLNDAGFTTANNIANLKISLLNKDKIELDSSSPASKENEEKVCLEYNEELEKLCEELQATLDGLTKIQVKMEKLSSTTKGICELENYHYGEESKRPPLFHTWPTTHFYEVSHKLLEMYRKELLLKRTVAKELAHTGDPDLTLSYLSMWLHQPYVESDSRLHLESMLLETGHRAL


How the values were obtained:
[1] = molecular target: T1, FLAG-HA-SPATA5L1 wild type, transiently expressed in 293T (human); test: co-IP; FLAG IP from nuclei of 293T transiently expressing the FH bait (Figure S1B: lysed in the presence or absence of benzonase to extract chromatin); Western blot
[2] = molecular target: T2, CINP, untagged, purified alone (human), …; test: native MS; untagged proteins in 500 mM ammonium acetate; 12 μM C1orf109, 20 μM CINP, 20 μM C1orf109-CINP complex; both purified; conditions: remark: other sources report otherwise

binding [1]	binding [2]	Binder
binds	–	RFC1 (293T nuclei) (protein, UniProt P35251 1-1148) MDIRKFFGVIPSGKKLVSETVKKNEKTKSDEETLKAKKGIKEIKVNSSRKEDDFKQKQPSKKKRIIYDSDSESEETLQVKNAKKPPEKLPVSSKPGKISRQDPVTYISETDEEDDFMCKKAASKSKENGRSTNSHLGTSNMKKNEENTKTKNKPLSPIKLTPTSVLDYFGTGSVQRSNKKMVASKRKELSQNTDESGLNDEAIAKQLQLDEDAELERQLHEDEEFARTLAMLDEEPKTKKARKDTEAGETFSSVQANLSKAEKHKYPHKVKTAQVSDERKSYSPRKQSKYESSKESQQHSKSSADKIGEVSSPKASSKLAIMKRKEESSYKEIEPVASKRKENAIKLKGETKTPKKTKSSPAKKESVSPEDSEKKRTNYQAYRSYLNREGPKALGSKEIPKGAENCLEGLIFVITGVLESIERDEAKSLIERYGGKVTGNVSKKTNYLVMGRDSGQSKSDKAAALGTKIIDEDGLLNLIRTMPGKKSKYEIAVETEMKKESKLERTPQKNVQGKRKISPSKKESESKKSRPTSKRDSLAKTIKKETDVFWKSLDFKEQVAEETSGDSKARNLADDSSENKVENLLWVDKYKPTSLKTIIGQQGDQSCANKLLRWLRNWQKSSSEDKKHAAKFGKFSGKDDGSSFKAALLSGPPGVGKTTTASLVCQELGYSYVELNASDTRSKSSLKAIVAESLNNTSIKGFYSNGAASSVSTKHALIMDEVDGMAGNEDRGGIQELIGLIKHTKIPIICMCNDRNHPKIRSLVHYCFDLRFQRPRVEQIKGAMMSIAFKEGLKIPPPAMNEIILGANQDIRQVLHNLSMWCARSKALTYDQAKADSHRAKKDIKMGPFDVARKVFAAGEETAHMSLVDKSDLFFHDYSIAPLFVQENYIHVKPVAAGGDMKKHLMLLSRAADSICDGDLVDSQIRSKQNWSLLPAQAIYASVLPGELMRGYMTQFPTFPSWLGKHSSTGKHDRIVQDLALHMSLRTYSSKRTVNMDYLSLLRDALVQPLTSQGVDGVQDVVALMDTYYLMKEDFENIMEISSWGGKPSPFSKLDPKVKAAFTRAYNKEAHLTPYSLQAIKASRHSTSPSLDSEYNEELNEDDSQSDEKDQDAIETDAMIKKKTKSSKPSKPEKDKEPRKGKGKSSKK
binds	–	POLD3 (293T nuclei) (protein, UniProt Q15054 1-466) MADQLYLENIDEFVTDQNKIVTYKWLSYTLGVHVNQAKQMLYDYVERKRKENSGAQLHVTYLVSGSLIQNGHSCHKVAVVREDKLEAVKSKLAVTASIHVYSIQKAMLKDSGPLFNTDYDILKSNLQNCSKFSAIQCAAAVPRAPAESSSSSKKFEQSHLHMSSETQANNELTTNGHGPPASKQVSQQPKGIMGMFASKAAAKTQETNKETKTEAKEVTNASAAGNKAPGKGNMMSNFFGKAAMNKFKVNLDSEQAVKEEKIVEQPTVSVTEPKLATPAGLKKSSKKAEPVKVLQKEKKRGKRVALSDDETKETENMRKKRRRIKLPESDSSEDEVFPDSPGAYEAESPSPPPPPSPPLEPVPKTEPEPPSVKSSSGENKRKRKRVLKSKTYLDGEGCIVTEKVYESESCTDSEEELNMKTSSVHRPPAMTVKKEPREERKGPKKGTAALGKANRQVSITGFFQRK
–	no binding (tested: 20 μM)	CINP, untagged, purified alone, Q9BW66 1-212 (protein) MEAKTLGTVTPRKPVLSVSARKIKDNAADWHNLILKWETLNDAGFTTANNIANLKISLLNKDKIELDSSSPASKENEEKVCLEYNEELEKLCEELQATLDGLTKIQVKMEKLSSTTKGICELENYHYGEESKRPPLFHTWPTTHFYEVSHKLLEMYRKELLLKRTVAKELAHTGDPDLTLSYLSMWLHQPYVESDSRLHLESMLLETGHRAL
